Data source: PubChem BioAssay AID1259254 (NCATS, 2017)
This is an unselected part of about 59,000 deposited reagents. About 1,550 of them (2.6%) were called active. 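G2 share is only a proxy for re-replication; each gene was hit by three separate siRNAs, and active genes were retested.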 Entries without a mark were called inactive. The numbers tell different reagents against one gene apart. Not all columns of the deposit are shown. Reagent sequences are not shown. Not stated in the record: the amount of reagent.

Screen: 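Genome-wide screen for genes that prevent DNA re-replication in cancer cells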 (primary screen)
Cell system: human HCT116 colorectal cancer cells
Reagent: single siRNA against human genes
Time to read-out: 3 days
Measurement: 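Nuclei stained with Hoechst and imaged; cell-cycle phase assigned by DNA content; G2 share scaled per plate, non-targeting siRNA 0%, GMNN siRNA 100%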
Reading the numbers: G2 robust z-score and G2 cells, % of GMNN control: higher = more G2 cells, more excess DNA replication
Call rule: 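Active siRNAs have a G2 robust z of 5 or more median absolute deviations over the median, which in these data means about 38% or higher of GMNN control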

gene knocked down	reagent no.	G2 robust z-score	G2 cells, % of GMNN control
LINC00442 (long independently transcribed non-coding RNA 442)	1	0.581	7.06
LINC00442 (long independently transcribed non-coding RNA 442)	2	0.172	4.18
LINC00442 (long independently transcribed non-coding RNA 442)	3	4.84	37
ERCC6L (ERCC excision repair 6 like DNA helicase)	1	-0.959	-3.78
ERCC6L (ERCC excision repair 6 like DNA helicase)	2	-0.714	-2.06
ERCC6L (ERCC excision repair 6 like DNA helicase)	3	-0.161	1.84
ANO8 (anoctamin 8)	1	-0.759	-2.37
ANO8 (anoctamin 8)	2	-0.209	1.5
ANO8 (anoctamin 8)	3	3.16	25.2
TMEM74 (transmembrane protein 74)	1	0.141	3.96
TMEM74 (transmembrane protein 74)	2	0.127	3.86
TMEM74 (transmembrane protein 74)	3	-0.45	-0.199
C9orf85 (chromosome 9 open reading frame 85)	1	2.08	17.6
C9orf85 (chromosome 9 open reading frame 85)	2	0.726	8.07
C9orf85 (chromosome 9 open reading frame 85)	3	-0.685	-1.85
MYLK3 (myosin light chain kinase 3)	1	-0.287	0.945
MYLK3 (myosin light chain kinase 3)	2	5.74 (active)	43.4
MYLK3 (myosin light chain kinase 3)	3	-0.215	1.46
SNX22 (sorting nexin 22)	1	-0.436	-0.0998
SNX22 (sorting nexin 22)	2	4.5	34.6
SNX22 (sorting nexin 22)	3	0.576	7.02
RPSAP47 (ribosomal protein SA pseudogene 47)	1	5.85 (active)	44.2
RPSAP47 (ribosomal protein SA pseudogene 47)	2	2.4	19.8
RPSAP47 (ribosomal protein SA pseudogene 47)	3	-0.747	-2.29
PIK3AP1 (phosphoinositide-3-kinase adaptor protein 1)	1	1.27	11.9
PIK3AP1 (phosphoinositide-3-kinase adaptor protein 1)	2	-0.813	-2.76
PIK3AP1 (phosphoinositide-3-kinase adaptor protein 1)	3	-0.697	-1.93
ATXN1L (ataxin 1 like)	1	-1.41	-6.95
ATXN1L (ataxin 1 like)	2	-0.149	1.92
ATXN1L (ataxin 1 like)	3	1.34	12.4
SDHD (succinate dehydrogenase complex subunit D)	1	-0.609	-1.32
SDHD (succinate dehydrogenase complex subunit D)	2	3.25	25.8
SDHD (succinate dehydrogenase complex subunit D)	3	2.01	17.1
PLAC1 (placenta associated 1)	1	3.08	24.7
PLAC1 (placenta associated 1)	2	-0.0469	2.64
PLAC1 (placenta associated 1)	3	-0.896	-3.34
SNAI3 (snail family transcriptional repressor 3)	1	0.163	4.11
SNAI3 (snail family transcriptional repressor 3)	2	0.259	4.79
SNAI3 (snail family transcriptional repressor 3)	3	-0.706	-2
ADIRF (adipogenesis regulatory factor)	1	-0.575	-1.08
ADIRF (adipogenesis regulatory factor)	2	1.66	14.7
ADIRF (adipogenesis regulatory factor)	3	-0.239	1.29
BMP3 (bone morphogenetic protein 3)	1	-0.323	0.694
BMP3 (bone morphogenetic protein 3)	2	2.85	23
BMP3 (bone morphogenetic protein 3)	3	-0.132	2.04
CPSF2 (cleavage and polyadenylation specific factor 2)	1	-0.765	-2.42
CPSF2 (cleavage and polyadenylation specific factor 2)	2	-1.38	-6.75
CPSF2 (cleavage and polyadenylation specific factor 2)	3	1.19	11.3
MAGEB6B (MAGE family member B6B)	1	0.0917	3.61
MAGEB6B (MAGE family member B6B)	2	2.07	17.6
MAGEB6B (MAGE family member B6B)	3	-0.563	-0.994
RGS22 (regulator of G protein signaling 22)	1	-0.3	0.856
RGS22 (regulator of G protein signaling 22)	2	0.465	6.24
RGS22 (regulator of G protein signaling 22)	3	1.03	10.2
MB21D2 (Mab-21 domain containing 2)	1	0.51	6.56
MB21D2 (Mab-21 domain containing 2)	2	-0.223	1.4
MB21D2 (Mab-21 domain containing 2)	3	0.558	6.89
RAD51 (RAD51 recombinase)	1	1.1	10.7
RAD51 (RAD51 recombinase)	2	0.723	8.06
RAD51 (RAD51 recombinase)	3	1.42	13
RASGRP2 (RAS guanyl releasing protein 2)	1	0.0913	3.61
RASGRP2 (RAS guanyl releasing protein 2)	2	3.53	27.8
RASGRP2 (RAS guanyl releasing protein 2)	3	-0.0823	2.39
NUBP2 (NUBP iron-sulfur cluster assembly factor 2, cytosolic)	1	0.686	7.8
NUBP2 (NUBP iron-sulfur cluster assembly factor 2, cytosolic)	2	-0.703	-1.98
NUBP2 (NUBP iron-sulfur cluster assembly factor 2, cytosolic)	3	-0.0139	2.87
LCMT1 (leucine carboxyl methyltransferase 1)	1	1.4	12.8
LCMT1 (leucine carboxyl methyltransferase 1)	2	-1.17	-5.3
LCMT1 (leucine carboxyl methyltransferase 1)	3	-0.26	1.14

A stretch from the list above, for reference:
gene knocked down	reagent no.	G2 robust z-score	G2 cells, % of GMNN control
ADIRF (adipogenesis regulatory factor)	3	-0.239	1.29
BMP3 (bone morphogenetic protein 3)	1	-0.323	0.694
BMP3 (bone morphogenetic protein 3)	2	2.85	23
BMP3 (bone morphogenetic protein 3)	3	-0.132	2.04
CPSF2 (cleavage and polyadenylation specific factor 2)	1	-0.765	-2.42
CPSF2 (cleavage and polyadenylation specific factor 2)	2	-1.38	-6.75
CPSF2 (cleavage and polyadenylation specific factor 2)	3	1.19	11.3
